The source of these data is article doi:10.1101/2023.08.22.554276.

By UniProt entry, the sequences of proteins in these tests, tags left out.
UniProt Q62420: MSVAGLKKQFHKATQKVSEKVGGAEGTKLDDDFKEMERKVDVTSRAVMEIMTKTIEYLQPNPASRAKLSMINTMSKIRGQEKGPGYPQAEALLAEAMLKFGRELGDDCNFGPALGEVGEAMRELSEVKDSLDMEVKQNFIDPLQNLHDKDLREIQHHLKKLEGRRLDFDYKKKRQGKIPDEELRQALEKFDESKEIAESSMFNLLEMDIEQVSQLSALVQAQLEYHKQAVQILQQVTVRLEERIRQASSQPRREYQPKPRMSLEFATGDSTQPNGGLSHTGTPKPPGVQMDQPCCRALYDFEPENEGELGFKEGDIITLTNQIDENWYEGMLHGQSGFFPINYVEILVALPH
UniProt Q15811: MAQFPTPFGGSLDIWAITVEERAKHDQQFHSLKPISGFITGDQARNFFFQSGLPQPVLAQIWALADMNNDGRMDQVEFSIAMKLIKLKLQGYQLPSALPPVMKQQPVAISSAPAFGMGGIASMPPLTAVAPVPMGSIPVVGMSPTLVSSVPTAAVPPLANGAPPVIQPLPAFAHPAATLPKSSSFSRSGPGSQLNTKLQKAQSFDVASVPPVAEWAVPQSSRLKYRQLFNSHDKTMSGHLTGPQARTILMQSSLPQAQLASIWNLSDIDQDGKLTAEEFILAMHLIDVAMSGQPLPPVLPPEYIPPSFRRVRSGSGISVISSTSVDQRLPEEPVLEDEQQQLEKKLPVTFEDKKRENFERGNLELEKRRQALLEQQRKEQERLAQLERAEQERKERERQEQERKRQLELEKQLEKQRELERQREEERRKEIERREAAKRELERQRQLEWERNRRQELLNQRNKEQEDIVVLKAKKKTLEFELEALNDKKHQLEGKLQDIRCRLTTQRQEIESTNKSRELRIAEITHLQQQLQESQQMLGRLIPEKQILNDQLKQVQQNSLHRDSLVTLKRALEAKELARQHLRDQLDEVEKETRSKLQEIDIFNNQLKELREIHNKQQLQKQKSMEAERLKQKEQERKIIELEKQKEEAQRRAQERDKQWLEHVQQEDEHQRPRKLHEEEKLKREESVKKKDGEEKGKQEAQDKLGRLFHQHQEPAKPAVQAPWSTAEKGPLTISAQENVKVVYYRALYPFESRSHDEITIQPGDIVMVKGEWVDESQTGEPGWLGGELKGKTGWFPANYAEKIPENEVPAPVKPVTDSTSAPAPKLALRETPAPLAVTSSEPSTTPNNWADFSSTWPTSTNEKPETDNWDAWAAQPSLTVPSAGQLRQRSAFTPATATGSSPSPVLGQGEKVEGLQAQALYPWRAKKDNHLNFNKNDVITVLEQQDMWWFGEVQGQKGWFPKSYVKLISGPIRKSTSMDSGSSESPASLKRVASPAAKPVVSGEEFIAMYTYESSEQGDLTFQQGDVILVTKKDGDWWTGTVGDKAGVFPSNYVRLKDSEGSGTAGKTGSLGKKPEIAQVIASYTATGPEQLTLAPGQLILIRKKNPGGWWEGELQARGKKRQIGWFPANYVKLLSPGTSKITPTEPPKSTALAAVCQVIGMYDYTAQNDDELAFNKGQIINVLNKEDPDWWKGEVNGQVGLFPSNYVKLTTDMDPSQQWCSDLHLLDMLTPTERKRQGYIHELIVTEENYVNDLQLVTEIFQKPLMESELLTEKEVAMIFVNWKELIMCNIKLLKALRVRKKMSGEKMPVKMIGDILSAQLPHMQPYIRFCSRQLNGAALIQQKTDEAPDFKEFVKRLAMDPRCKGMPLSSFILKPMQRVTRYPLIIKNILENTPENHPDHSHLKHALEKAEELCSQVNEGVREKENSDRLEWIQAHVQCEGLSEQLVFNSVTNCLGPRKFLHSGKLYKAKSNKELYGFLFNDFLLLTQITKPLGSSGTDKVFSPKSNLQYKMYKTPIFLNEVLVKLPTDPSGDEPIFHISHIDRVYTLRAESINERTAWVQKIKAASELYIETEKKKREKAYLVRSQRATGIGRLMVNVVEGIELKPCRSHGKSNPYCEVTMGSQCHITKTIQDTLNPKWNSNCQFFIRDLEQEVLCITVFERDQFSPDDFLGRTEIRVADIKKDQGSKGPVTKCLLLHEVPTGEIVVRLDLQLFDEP

Results are given in words; binding and its absence hold for the method and conditions named. In cells and extracts the contact can be indirect. Some results given as binding are weak or reduced against the parent protein; the word gives no strength.

The target in the test is Endophilin A1 (mouse (endogenous in hippocampal neurons)) (UniProt Q62420). Nature of the test: co-IP; anti-Endophilin 1 guinea pig polyclonal antibody on Dynabeads; lysates of Itsn1 KO mouse hippocampal cultures infected with lentiviral rescue constructs (DIV 7, lysed DIV 14); lysis buffer 20 mM HEPES pH 7.4, 50 mM KCl, 2 mM MgCl2, 1% Triton X-100; blot with anti-Itsn1.

As to “Intersectin-1 Long (L), full length, wild-type rescue construct (from UniProt Q15811 1-1721)”, the binding entry is recorded as “binds”.
